PubChem BioAssay AID1224830, NIAID | 2016

Assay: 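Regulators of TLR4 signalling towards TNF-alpha in macrophage-like cells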 (primary screen)
System: human THP-1 monocytic leukaemia cells, TNF dual-luciferase reporter clone, PMA-differentiated to macrophage-like cells
Knock-down reagent: siRNA pool against human genes, 50 nM
Duration: LPS for 4 h, given about 3 days after siRNA transfection
Challenge: bacterial LPS (TLR4 ligand), 10 ng/ml
Read-out: 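TNF firefly reporter luminescence divided by renilla, normalised to the plate median, then turned into a robust z-score for each replicate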
Direction: TNF reporter robust z-score: higher = stronger TNF reporter response to LPS
Rule for the call: 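a well is active when its z-score exceeds 2.8 or falls below -1.5; control wells carry no call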
Shown is an unselected part of about 18,000 reagents tested. About 2,900 of all reagents (16%) count as active. 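Calls are made per well; low scores hint the gene aids the LPS response, high scores that it dampens it.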 Repeated entries: four replicate wells of each siRNA pool. No sequences are given here.

| Target gene | TNF reporter robust z-score | outcome |
| --- | --- | --- |
| ZNF3 | -0.16 | inactive |
| ZNF3 | 0.17 | inactive |
| ZNF3 | -1.34 | inactive |
| ZNF3 | -1.57 | active |
| CCND2 | -1.36 | inactive |
| CCND2 | -0.86 | inactive |
| CCND2 | -1.29 | inactive |
| CCND2 | -0.68 | inactive |
| P4HA3 | -0.43 | inactive |
| P4HA3 | 0.24 | inactive |
| P4HA3 | 0.18 | inactive |
| P4HA3 | 0.93 | inactive |
| ZDHHC23 | 1.18 | inactive |
| ZDHHC23 | -0.46 | inactive |
| ZDHHC23 | 0.27 | inactive |
| ZDHHC23 | 2.31 | inactive |
| NANP | 0.75 | inactive |
| NANP | 1.54 | inactive |
| NANP | 1.14 | inactive |
| NANP | 1.26 | inactive |
| PCDHB1 | 0.05 | inactive |
| PCDHB1 | 0.87 | inactive |
| PCDHB1 | 0.34 | inactive |
| PCDHB1 | -0.04 | inactive |
| TWIST1 | 7.74 | active |
| TWIST1 | 2.63 | inactive |
| TWIST1 | 1.91 | inactive |
| TWIST1 | 4.17 | active |
| CNR2 | 2.43 | inactive |
| CNR2 | 2.42 | inactive |
| CNR2 | 2.1 | inactive |
| CNR2 | 4.17 | active |
| PCDHB14 | 0.72 | inactive |
| PCDHB14 | 0.39 | inactive |
| PCDHB14 | -0.42 | inactive |
| PCDHB14 | 0.09 | inactive |
| SLX1A | 0.8 | inactive |
| SLX1A | 1.75 | inactive |
| SLX1A | -1 | inactive |
| SLX1A | 0.22 | inactive |
| PGGHG | 0.12 | inactive |
| PGGHG | 1.5 | inactive |
| PGGHG | 0.44 | inactive |
| PGGHG | 1.63 | inactive |
| SLC33A2 | 0.09 | inactive |
| SLC33A2 | -0.23 | inactive |
| SLC33A2 | 0.35 | inactive |
| SLC33A2 | -1.36 | inactive |
| KREMEN2 | -0.01 | inactive |
| KREMEN2 | 1.31 | inactive |
| KREMEN2 | 0.16 | inactive |
| KREMEN2 | 1.36 | inactive |
| SORBS1 | -0.1 | inactive |
| SORBS1 | -0.67 | inactive |
| SORBS1 | 0.02 | inactive |
| SORBS1 | -0.45 | inactive |
| GOLIM4 | 0.14 | inactive |
| GOLIM4 | -0.13 | inactive |
| GOLIM4 | 0.45 | inactive |
| GOLIM4 | -0.18 | inactive |
| GLIPR2 | -1.14 | inactive |
| GLIPR2 | -1.63 | active |
| GLIPR2 | -0.94 | inactive |
| GLIPR2 | -0.54 | inactive |
| ALDOC | 3.44 | active |
| ALDOC | 0.12 | inactive |
| ALDOC | -0.62 | inactive |
| ALDOC | -0.36 | inactive |
| MESP2 | 0.53 | inactive |
| MESP2 | 1.11 | inactive |
| MESP2 | 1.46 | inactive |
| MESP2 | 0.83 | inactive |
| SLC39A14 | 0.16 | inactive |
| SLC39A14 | -0.26 | inactive |
| SLC39A14 | -0.21 | inactive |
| SLC39A14 | -0.41 | inactive |
| TARBP2 | 0.25 | inactive |
| TARBP2 | 1.14 | inactive |
| TARBP2 | 0.12 | inactive |
| TARBP2 | 0.66 | inactive |
| ZNF707 | -0.17 | inactive |
| ZNF707 | 0.87 | inactive |
| ZNF707 | 0.73 | inactive |
| ZNF707 | 1.08 | inactive |
| CAMKV | 0.11 | inactive |
| CAMKV | 0.66 | inactive |
| CAMKV | 0.13 | inactive |
| CAMKV | -0.02 | inactive |
| GPR20 | -0.71 | inactive |
| GPR20 | -0.6 | inactive |
| GPR20 | -1.09 | inactive |
| GPR20 | -0.37 | inactive |
| AZIN2 | -0.59 | inactive |
| AZIN2 | -0.9 | inactive |
| AZIN2 | 1.29 | inactive |
| AZIN2 | 0.45 | inactive |
| CHN2 | 0.1 | inactive |
| CHN2 | -0.4 | inactive |
| CHN2 | -0.33 | inactive |
| CHN2 | -0.86 | inactive |
| IGSF8 | 3.03 | active |
| IGSF8 | 0.12 | inactive |
| IGSF8 | 1.38 | inactive |
| IGSF8 | 3.11 | active |
| HMCN1 | -0.32 | inactive |
| HMCN1 | -0.16 | inactive |
| HMCN1 | -0.66 | inactive |
| HMCN1 | 0.19 | inactive |
| CCNL1 | -0.11 | inactive |
| CCNL1 | 0.39 | inactive |
| CCNL1 | 1.99 | inactive |
| CCNL1 | 0.26 | inactive |

Part of the list above in another layout:
Target gene,TNF reporter robust z-score,outcome
SORBS1,0.02,inactive
SORBS1,-0.45,inactive
GOLIM4,0.14,inactive
GOLIM4,-0.13,inactive
GOLIM4,0.45,inactive
GOLIM4,-0.18,inactive
GLIPR2,-1.14,inactive
GLIPR2,-1.63,active
GLIPR2,-0.94,inactive
GLIPR2,-0.54,inactive
ALDOC,3.44,active
ALDOC,0.12,inactive
